The text below walks through data of the supplement of paper PMC10849652.

Amino acid sequences for entries named in this document (tags omitted). A change or cut given only in a name is not applied to a line headed by its entry.
UniProt Q13033: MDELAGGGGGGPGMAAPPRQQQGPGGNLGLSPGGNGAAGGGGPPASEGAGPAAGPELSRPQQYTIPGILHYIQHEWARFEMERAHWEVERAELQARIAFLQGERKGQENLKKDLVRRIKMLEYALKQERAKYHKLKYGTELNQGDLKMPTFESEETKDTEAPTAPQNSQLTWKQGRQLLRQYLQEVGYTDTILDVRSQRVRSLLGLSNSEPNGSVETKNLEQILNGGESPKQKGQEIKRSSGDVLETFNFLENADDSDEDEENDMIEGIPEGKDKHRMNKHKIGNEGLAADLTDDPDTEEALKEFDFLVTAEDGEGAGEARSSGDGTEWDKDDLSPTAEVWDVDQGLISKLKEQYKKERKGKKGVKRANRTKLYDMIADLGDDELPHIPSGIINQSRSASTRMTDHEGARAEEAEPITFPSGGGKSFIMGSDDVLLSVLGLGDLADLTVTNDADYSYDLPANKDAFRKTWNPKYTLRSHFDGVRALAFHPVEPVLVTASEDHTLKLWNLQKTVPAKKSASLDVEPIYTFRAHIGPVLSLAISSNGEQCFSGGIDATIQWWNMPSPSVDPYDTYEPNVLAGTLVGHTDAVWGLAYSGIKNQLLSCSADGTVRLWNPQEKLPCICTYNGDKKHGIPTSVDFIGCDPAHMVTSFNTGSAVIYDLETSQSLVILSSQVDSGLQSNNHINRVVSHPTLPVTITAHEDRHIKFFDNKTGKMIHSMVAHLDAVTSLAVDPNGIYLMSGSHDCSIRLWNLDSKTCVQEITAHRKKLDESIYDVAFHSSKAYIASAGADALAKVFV
UniProt O00268, whole entry, looked up: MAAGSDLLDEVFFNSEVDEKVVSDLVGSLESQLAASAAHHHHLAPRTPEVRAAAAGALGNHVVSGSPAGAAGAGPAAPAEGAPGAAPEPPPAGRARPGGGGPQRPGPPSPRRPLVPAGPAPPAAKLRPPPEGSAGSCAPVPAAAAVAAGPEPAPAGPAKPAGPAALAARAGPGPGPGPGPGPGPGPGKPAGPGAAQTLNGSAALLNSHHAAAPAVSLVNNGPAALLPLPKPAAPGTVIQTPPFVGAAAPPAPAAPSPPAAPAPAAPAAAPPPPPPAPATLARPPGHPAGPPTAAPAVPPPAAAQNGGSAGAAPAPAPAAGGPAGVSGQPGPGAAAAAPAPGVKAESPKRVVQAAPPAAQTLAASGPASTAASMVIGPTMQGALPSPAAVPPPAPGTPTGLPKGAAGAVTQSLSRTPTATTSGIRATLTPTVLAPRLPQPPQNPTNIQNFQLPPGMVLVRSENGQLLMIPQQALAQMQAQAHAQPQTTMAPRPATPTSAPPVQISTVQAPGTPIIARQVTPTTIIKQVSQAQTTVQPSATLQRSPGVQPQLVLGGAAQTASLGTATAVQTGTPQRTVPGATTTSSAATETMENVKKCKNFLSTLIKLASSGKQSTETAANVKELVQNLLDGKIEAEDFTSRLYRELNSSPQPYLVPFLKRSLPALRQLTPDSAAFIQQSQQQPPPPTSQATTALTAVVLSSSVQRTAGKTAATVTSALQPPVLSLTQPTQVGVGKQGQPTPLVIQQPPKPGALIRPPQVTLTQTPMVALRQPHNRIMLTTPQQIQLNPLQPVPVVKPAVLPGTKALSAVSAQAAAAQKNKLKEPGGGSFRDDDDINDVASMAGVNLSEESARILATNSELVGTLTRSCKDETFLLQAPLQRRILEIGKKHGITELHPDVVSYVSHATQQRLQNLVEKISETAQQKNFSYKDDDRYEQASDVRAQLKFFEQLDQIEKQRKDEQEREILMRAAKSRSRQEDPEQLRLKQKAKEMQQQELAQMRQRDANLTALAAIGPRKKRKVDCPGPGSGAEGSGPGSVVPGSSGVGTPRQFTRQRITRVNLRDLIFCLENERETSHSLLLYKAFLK
UniProt P49888: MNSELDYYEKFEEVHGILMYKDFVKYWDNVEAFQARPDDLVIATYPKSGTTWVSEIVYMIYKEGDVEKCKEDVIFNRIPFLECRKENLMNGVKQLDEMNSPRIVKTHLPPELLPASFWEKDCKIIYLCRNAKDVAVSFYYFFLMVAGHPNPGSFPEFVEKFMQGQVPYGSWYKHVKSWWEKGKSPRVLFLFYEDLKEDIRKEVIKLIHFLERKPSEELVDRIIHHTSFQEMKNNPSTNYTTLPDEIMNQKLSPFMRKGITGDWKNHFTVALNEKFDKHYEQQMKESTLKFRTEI
UniProt Q13188: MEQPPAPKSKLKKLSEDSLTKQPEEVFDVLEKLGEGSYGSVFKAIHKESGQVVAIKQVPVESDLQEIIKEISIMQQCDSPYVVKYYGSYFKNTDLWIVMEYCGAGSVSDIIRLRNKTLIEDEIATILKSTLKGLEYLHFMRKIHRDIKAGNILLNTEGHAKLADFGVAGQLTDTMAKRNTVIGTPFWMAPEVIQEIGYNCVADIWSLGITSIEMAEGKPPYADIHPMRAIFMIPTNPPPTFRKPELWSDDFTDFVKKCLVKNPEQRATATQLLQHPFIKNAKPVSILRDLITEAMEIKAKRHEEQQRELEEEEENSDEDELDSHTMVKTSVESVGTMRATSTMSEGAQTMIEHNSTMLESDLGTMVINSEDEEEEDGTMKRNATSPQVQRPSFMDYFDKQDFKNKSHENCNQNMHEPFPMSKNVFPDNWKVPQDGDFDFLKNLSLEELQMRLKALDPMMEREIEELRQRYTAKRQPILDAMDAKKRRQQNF
UniProt Q9NRP7: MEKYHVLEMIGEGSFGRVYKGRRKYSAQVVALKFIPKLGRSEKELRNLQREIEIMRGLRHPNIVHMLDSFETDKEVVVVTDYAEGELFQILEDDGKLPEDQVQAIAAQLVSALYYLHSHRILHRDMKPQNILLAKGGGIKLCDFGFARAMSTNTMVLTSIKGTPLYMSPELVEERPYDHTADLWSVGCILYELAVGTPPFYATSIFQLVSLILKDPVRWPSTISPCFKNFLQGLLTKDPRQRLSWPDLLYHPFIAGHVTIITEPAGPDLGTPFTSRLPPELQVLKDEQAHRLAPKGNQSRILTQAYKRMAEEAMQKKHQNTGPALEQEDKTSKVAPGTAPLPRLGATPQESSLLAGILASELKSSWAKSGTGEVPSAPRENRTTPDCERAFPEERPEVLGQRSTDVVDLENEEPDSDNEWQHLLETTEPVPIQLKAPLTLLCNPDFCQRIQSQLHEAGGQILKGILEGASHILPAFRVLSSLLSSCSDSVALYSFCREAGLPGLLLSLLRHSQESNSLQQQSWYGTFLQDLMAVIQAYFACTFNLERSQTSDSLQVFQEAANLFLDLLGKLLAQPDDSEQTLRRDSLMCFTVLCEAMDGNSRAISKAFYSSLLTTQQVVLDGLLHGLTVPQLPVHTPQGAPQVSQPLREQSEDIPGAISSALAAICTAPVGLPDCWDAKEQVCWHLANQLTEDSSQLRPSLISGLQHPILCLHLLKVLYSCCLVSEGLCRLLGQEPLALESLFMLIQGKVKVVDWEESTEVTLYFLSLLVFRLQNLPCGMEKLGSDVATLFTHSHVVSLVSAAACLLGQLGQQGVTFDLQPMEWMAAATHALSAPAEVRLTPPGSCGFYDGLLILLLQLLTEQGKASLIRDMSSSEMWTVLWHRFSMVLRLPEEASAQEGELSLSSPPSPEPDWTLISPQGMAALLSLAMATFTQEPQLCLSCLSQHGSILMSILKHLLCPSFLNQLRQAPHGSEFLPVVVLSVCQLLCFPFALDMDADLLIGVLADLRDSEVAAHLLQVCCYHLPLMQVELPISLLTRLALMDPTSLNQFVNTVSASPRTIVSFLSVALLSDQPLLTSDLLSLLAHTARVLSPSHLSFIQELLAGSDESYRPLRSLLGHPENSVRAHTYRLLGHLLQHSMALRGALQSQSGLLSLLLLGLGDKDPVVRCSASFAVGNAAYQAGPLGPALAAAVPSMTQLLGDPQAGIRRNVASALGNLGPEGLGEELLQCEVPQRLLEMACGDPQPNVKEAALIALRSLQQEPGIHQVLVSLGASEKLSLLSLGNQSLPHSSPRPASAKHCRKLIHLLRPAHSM
UniProt Q15544, whole entry, looked up: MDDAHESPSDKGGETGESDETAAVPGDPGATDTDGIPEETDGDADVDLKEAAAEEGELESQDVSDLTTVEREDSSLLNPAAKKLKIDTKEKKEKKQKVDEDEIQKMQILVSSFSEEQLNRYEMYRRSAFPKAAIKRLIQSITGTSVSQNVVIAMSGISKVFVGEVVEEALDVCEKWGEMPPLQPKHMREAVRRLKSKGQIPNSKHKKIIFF
UniProt Q8WUJ0: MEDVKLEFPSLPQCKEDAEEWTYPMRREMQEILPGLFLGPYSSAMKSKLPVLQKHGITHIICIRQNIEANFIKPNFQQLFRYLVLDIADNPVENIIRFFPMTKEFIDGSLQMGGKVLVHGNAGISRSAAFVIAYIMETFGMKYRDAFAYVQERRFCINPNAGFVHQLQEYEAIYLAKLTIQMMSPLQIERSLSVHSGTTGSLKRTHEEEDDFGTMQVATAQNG
UniProt Q8NBK3: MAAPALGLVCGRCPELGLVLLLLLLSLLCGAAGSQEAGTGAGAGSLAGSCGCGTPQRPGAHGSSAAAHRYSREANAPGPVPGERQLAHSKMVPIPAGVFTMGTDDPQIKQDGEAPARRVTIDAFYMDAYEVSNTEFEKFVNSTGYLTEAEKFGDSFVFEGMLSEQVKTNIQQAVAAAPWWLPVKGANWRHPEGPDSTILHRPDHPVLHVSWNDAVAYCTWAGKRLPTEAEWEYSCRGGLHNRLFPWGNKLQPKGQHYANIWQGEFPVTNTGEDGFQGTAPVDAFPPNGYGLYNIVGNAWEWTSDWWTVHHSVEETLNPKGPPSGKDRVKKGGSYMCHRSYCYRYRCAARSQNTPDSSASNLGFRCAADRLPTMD
UniProt O15056: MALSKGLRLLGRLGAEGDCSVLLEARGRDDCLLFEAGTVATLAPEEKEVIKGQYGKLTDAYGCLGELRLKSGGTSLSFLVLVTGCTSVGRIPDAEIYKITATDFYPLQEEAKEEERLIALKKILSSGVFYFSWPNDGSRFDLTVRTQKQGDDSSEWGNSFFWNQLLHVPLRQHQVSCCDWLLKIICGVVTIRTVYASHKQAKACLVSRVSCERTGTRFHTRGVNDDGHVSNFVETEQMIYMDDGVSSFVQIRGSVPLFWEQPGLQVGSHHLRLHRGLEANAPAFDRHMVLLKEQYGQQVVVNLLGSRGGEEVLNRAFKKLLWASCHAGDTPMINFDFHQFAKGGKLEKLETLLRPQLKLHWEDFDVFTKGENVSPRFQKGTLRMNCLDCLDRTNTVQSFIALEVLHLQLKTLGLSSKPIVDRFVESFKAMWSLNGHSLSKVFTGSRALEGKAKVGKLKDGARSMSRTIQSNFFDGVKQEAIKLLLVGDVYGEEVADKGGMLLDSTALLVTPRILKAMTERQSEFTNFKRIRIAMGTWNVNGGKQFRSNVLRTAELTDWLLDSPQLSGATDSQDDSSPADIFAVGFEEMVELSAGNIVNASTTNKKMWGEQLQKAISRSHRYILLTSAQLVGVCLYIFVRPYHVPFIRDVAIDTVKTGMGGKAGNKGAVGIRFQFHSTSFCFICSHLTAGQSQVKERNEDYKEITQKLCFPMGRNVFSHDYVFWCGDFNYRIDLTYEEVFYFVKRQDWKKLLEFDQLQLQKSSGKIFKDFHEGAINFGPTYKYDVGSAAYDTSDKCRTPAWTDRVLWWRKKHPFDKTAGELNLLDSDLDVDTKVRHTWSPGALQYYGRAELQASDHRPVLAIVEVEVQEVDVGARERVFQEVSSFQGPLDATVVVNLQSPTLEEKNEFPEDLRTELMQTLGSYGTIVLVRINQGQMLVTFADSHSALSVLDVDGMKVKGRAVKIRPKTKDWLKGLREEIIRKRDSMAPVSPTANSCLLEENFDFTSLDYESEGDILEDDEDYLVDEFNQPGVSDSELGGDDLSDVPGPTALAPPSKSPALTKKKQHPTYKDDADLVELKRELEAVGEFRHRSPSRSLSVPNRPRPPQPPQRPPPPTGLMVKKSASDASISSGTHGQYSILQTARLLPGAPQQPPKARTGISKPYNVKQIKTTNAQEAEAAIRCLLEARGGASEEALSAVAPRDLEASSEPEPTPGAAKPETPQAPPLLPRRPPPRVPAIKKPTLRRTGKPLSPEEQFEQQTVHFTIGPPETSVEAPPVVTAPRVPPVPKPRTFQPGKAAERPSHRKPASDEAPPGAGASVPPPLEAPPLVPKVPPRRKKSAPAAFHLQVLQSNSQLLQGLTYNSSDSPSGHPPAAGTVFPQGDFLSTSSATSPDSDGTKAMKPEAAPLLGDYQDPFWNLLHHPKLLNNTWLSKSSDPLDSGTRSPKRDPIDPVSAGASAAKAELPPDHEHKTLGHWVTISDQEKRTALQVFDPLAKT
UniProt Q1ZZU3: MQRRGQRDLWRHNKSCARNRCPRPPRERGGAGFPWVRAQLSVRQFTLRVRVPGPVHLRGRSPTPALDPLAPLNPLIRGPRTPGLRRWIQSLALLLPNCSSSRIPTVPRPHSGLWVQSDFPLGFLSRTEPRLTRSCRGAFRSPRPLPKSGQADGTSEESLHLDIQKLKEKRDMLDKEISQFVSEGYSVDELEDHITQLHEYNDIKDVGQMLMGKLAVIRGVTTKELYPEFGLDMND

The list shows a part of the results.

Compound in one assay: CCn1c(C(=O)N(C2CC2)C2CC2)cc2c3c(ncn3C)c(Nc3cc(C)n(C)n3)nc21
In words: log2 fold change, soluble protein after heating vs DMSO (PISA); higher = thermal stabilisation; K562 cells, 10 uM, 30 min; active = over 0.2 and 3.5 SD of the protein, either way, in both replicates (recomputed). An outline of the steps:
(§1)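 Aliquots of K562 cells (2×10^6 cells/mL) treated with 10 μM compound for 30 min were heated for 3 min over 48°C-58°C. After pooling and extraction in PBS with 0.5% NP-40 at 4°C, soluble protein from a 21,000xg, 90 min spin was quantified by TMTpro 16plex LC-MS/MS with channel sums equalised. Thermal stability is expressed against control samples, from duplicates, as a log2 fold change.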
As for TADA1 (UniProt Q96BN2), the log2 fold change was inactive: -0.02.
For SUFU (UniProt Q9UMX1), the log2 fold change was inactive: -0.324.
On the same count and under the same terms, the figure for SUPT7L (UniProt O94864) is inactive: 0.202; for STRN3 isoform 2 (UniProt Q13033) it is inactive: 0.017.
Turning to TAF4 (UniProt O00268), the log2 fold change was inactive: -0.12.
On to SYTL4 (UniProt Q96C24), for which the log2 fold change is inactive: -0.032.
Same read-out and setting: with SYS1 (UniProt Q8N2H4) the figure was inactive: 0.054; with TATDN1 isoform 2 (UniProt Q6P1N9), inactive: -0.135.
SULT1E1 (UniProt P49888): the log2 fold change was inactive: 0.073.
Same read-out and setting: with STK3 isoform 2 (UniProt Q13188) the figure was inactive: 0.007.
Still for that read-out and setting: the figure for STK36 (UniProt Q9NRP7) is inactive: 0.161.
Turning to TAF11 (UniProt Q15544), the log2 fold change is inactive: -0.088.
As for SUDS3 (UniProt Q9H7L9), the log2 fold change was inactive: 0.045.
Same read-out and setting: with SUGT1 isoform 2 (UniProt Q9Y2Z0) the figure was inactive: 0.117; with TAF5 (UniProt Q15542), inactive: -0.147.
Same read-out and setting: the figure for STYX (UniProt Q8WUJ0) is inactive: 0.013; for TASP1 (UniProt Q9H6P5) it is inactive: -0.33.
SUMF1 isoform 3 (UniProt Q8NBK3): the log2 fold change is inactive: -0.008.
Same read-out and setting: with TAF9B (UniProt Q9HBM6) the figure was inactive: 0.043; with SYNJ2 (UniProt O15056), inactive: -0.122; with SWI5 (UniProt Q1ZZU3), inactive: 0.009.

Compound in the next assay: CCn1cc(-c2ccnc3[nH]c(-c4cccc(CN(C)C)c4)cc23)c(-c2ccc(NC(=O)N(C)C)cc2)n1
The assay is described as above. An outline of the steps: as §1
Take STRN3 isoform 2 (UniProt Q13033): the log2 fold change was inactive: 0.035.
In the case of TAF4 (UniProt O00268), the log2 fold change is inactive: -0.02.
On the same count and under the same terms, with SYS1 (UniProt Q8N2H4) the figure was inactive: -0.068.
Same read-out and setting: the figure for TAF13 (UniProt Q15543) is inactive: 0.229; for STON2 isoform 3 (UniProt Q8WXE9) it is inactive: -0.064.
On the same count and under the same terms, with SULT1E1 (UniProt P49888) the figure was inactive: -0.227; with STK38L (UniProt Q9Y2H1), inactive: -0.015; with STK3 isoform 2 (UniProt Q13188), inactive: -0.005.
On to STK36 (UniProt Q9NRP7), for which the log2 fold change was inactive: 0.168.
With TAF11 (UniProt Q15544), the log2 fold change is inactive: 0.035.
The same measure, in the same setting: the figure for TAF5 (UniProt Q15542) is inactive: -0.242.
With TAF6L (UniProt Q9Y6J9), the log2 fold change is inactive: -0.04.
Turning to STYX (UniProt Q8WUJ0), the log2 fold change was inactive: -0.281.
Same read-out and setting: the figure for SUMF1 isoform 3 (UniProt Q8NBK3) is inactive: 0.013; for TBC1D10A (UniProt Q9BXI6) it is inactive: 0.135; for TAF9B (UniProt Q9HBM6) it is inactive: -0.027.
Turning to SYNE1 (UniProt Q8NF91), the log2 fold change was inactive: -0.113.
The same measure, in the same setting: the figure for SYNJ2 (UniProt O15056) is inactive: -0.011.
Turning to SWI5 (UniProt Q1ZZU3), the log2 fold change was inactive: 0.029.

Compound in another assay: CN(C)CC(=O)Nc1ccc2[nH]c(=O)c3ccccc3c2c1
The description is as above. An outline of the steps:
as §1
In the case of STRN3 isoform 2 (UniProt Q13033), the log2 fold change is inactive: 0.18.
On the same count and under the same terms, the figure for TAGLN3 (UniProt Q9UI15) is inactive: 0.022; for TAF4 (UniProt O00268) it is inactive: 0.055.
Turning to TAF13 (UniProt Q15543), the log2 fold change was inactive: -0.057.
As for STXBP4 (UniProt Q6ZWJ1), the log2 fold change is inactive: -0.002.
On to STK38L (UniProt Q9Y2H1), for which the log2 fold change is inactive: -0.045.
The same measure, in the same setting: the figure for STK3 isoform 2 (UniProt Q13188) is inactive: 0.036; for SUPT5H isoform 2 (UniProt O00267) it is inactive: 0.149; for TAB2 (UniProt Q9NYJ8) it is inactive: 0.177.
On the same count and under the same terms, the figure for SUDS3 (UniProt Q9H7L9) is inactive: 0.012; for SUGT1 isoform 2 (UniProt Q9Y2Z0) it is inactive: -0.123; for TAF5 (UniProt Q15542) it is inactive: 0.491.
In the case of SYK (UniProt P43405), the log2 fold change was inactive: -0.085.
SUMF1 isoform 3 (UniProt Q8NBK3): the log2 fold change is inactive: -0.243.
For the target TBC1D10A (UniProt Q9BXI6), the log2 fold change was inactive: 0.118.
Consider TAF9B (UniProt Q9HBM6), for which the log2 fold change is inactive: -0.054.
On to STOML1 (UniProt Q9UBI4), for which the log2 fold change was inactive: -0.348.
Same read-out and setting: with SYNE1 (UniProt Q8NF91) the figure was inactive: 0.042; with SYNJ2 (UniProt O15056), inactive: 0.045.
In the case of SWI5 (UniProt Q1ZZU3), the log2 fold change is inactive: 0.008.

Compound in the next assay: CN(CCOC1=CC=C(C=C1)C[C@H]2C(=O)NC(=O)S2)C3=CC=CC=N3 (racemic) [rosiglitazone]
The assay is described as above. An outline of the steps:
as §1
On to SUFU (UniProt Q9UMX1), for which the log2 fold change was inactive: 0.
SUPT7L (UniProt O94864): the log2 fold change was inactive: -0.057.
On the same count and under the same terms, the figure for STRN3 isoform 2 (UniProt Q13033) is inactive: -0.001.
On the same count and under the same terms, with TAGLN3 (UniProt Q9UI15) the figure was inactive: 0.296.
As to TAF4 (UniProt O00268), the log2 fold change is inactive: -0.077.
Same read-out and setting: the figure for SYTL4 (UniProt Q96C24) is inactive: 0.023.
TAF5L (UniProt O75529): the log2 fold change is inactive: 0.099.
Still for that read-out and setting: the figure for SULT1E1 (UniProt P49888) is inactive: 0.127.
Still for that read-out and setting: with STK3 isoform 2 (UniProt Q13188) the figure was inactive: 0.034; with STK36 (UniProt Q9NRP7), inactive: 0.021; with TAF11 (UniProt Q15544), inactive: 0.009.
Same read-out and setting: the figure for SUDS3 (UniProt Q9H7L9) is inactive: -0.029.
Consider SUGT1 isoform 2 (UniProt Q9Y2Z0), for which the log2 fold change is inactive: 0.049.
Take TBC1D10A (UniProt Q9BXI6): the log2 fold change was inactive: 0.112.
Same read-out and setting: the figure for STS (UniProt P08842) is inactive: 0.116.
On the same count and under the same terms, with TAF9B (UniProt Q9HBM6) the figure was inactive: 0.073; with SYNJ2 (UniProt O15056), inactive: -0.037.
Regarding SWI5 (UniProt Q1ZZU3), the log2 fold change is inactive: -0.129.
